# Article doi:10.1101/2022.02.10.479924
# Results are given in words; binding and its absence hold for the method and conditions named. In cells and extracts the contact can be indirect. Some binding calls cover weakened binding; strength is not graded here.
# B1: eIF4A2 (subunit of the eIF4F complex), Q14240 1-407 (protein)
# chain: MSGGSADYNREHGGPEGMDPDGVIESNWNEIVDNFDDMNLKESLLRGIYAYGFEKPSAIQQRAIIPCIKGYDVIAQAQSGTGKTATFAISILQQLEIEFKETQALVLAPTRELAQQIQKVILALGDYMGATCHACIGGTNVRNEMQKLQAEAPHIVVGTPGRVFDMLNRRYLSPKWIKMFVLDEADEMLSRGFKDQIYEIFQKLNTSIQVVLLSATMPTDVLEVTKKFMRDPIRILVKKEELTLEGIKQFYINVEREEWKLDTLCDLYETLTITQAVIFLNTRRKVDWLTEKMHARDFTVSALHGDMDQKERDVIMREFRSGSSRVLITTDLLARGIDVQQVSLVINYDLPTNRENYIHRIGRGGRFGRKGVAINFVTEEDKRILRDIETFYNTTVEEMPMNVADLI
# Molecular target: G subunit of the eIF3 complex (eIF3G) (human (endogenous in HEK293T)), O75821
# Experiment: cross-linking
# Conditions: remark: other sources report otherwise
binder,measurement,value
B1,binding,binds
